According to patent publication US20200148778A1:
Results are given in words; binding and its absence hold for the method and conditions named. Some entries that bind do so weakly or less than the wild type. One block for each binder: values may come before it.

Amino acid sequences for entries named in this document (tags omitted). Residues count along the entry.
UniProt P25942, residues 21-193: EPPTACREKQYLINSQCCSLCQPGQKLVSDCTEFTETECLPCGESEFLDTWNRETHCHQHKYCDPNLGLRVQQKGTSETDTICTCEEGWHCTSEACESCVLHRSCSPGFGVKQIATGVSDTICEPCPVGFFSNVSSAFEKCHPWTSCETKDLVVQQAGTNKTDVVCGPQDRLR

Molecular target: His-tagged human CD40 (h-CD40-his) recombinant protein (human) (UniProt P25942)
Assay: ELISA

binding: binds
B1: humanized anti-CD40 antibody hu9E5 (H1c heavy chain and L1a light chain) (antibody, human IgG1, kappa, V domains shown)
VH: QVQLVQSGAEVKKPGASVKVSCKASGYILTTYWITWVRQAPGQGLEWMGDIHPGSGSTKYNEKFKSRVTLTVDTSISTAYMELSRLRSEDTAVYYCARRDYWGQGTTVTVSS
VL: DIVMTQSPLSLPVTPGEPASISCRSSQNIVNSQGNTYLEWYLQKPGQSPQLLIYKVTNRFSGVPDRFSGSGSGTDFTLKISRVEAEDVGVYYCFQASLVPWTFGGGTKVEIKR

binding: binds
B2: humanized anti-CD40 antibody hu2H6 (H1b heavy chain and L1c light chain) (antibody, human IgG1, kappa, V domains shown)
VH: QVQLVQSGAEVKKPGSSVKVSCKASGYAFSDYLIEWVRQAPGQGLEWMGVINPGSGGSNYNEKIKDRVTLTADKSTSTAYMELSSLRSEDTAVYYCARGGGGFTYWGQGTLVTVSS
VL: DIQLTQSPSSLSASVGDRVTITCRASQDISNYLNWYQQKPGKTIKLLLNFASRLHSGVPSRFSGSGSGTDFTFTISSLQPEDIATYYCQQGSTLPWTFGGGTKVEIKR
